Taken from: PubChem BioAssay AID504744 (Drosophila RNAi Screening Center, 2011)
The deposit covers about 23,000 reagents; below is a random part of those that have a named target and a result. In the full data, 98 (0.43%) got an active call. 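Only hit calls are given; the phospho-dAkt signals, z-scores and hit direction were not deposited.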 A plus sign joins genes that one reagent is predicted to hit.

- Assay: 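Uncover factors, including feedback loops, that control dAkt activation in fly cells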 (primary screen)
- Cell system: Drosophila Kc167 cells
- Knock-down reagent: long dsRNA against Drosophila genes, 250 ng dsRNA per well of a 384-well plate
- Duration: 3 days of knock-down, then overnight serum-free starvation before stimulation
- Treatment: bovine insulin at 387 nM for 10 minutes after 12 h without serum
- Read-out: 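In-cell antibody fluorescence for phospho-dAkt in each well over DNA-dye signal, with log2 residuals expressed as z-scores adjusted for cell count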
- Hit rule: 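Under insulin, a gene counts as a hit if the average z-score of two replicates lies above 2.5 or below -2.5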

| predicted target | dsRNA | Call |
| --- | --- | --- |
| ghi | DRSC08985 | inactive |
| CG42284 | DRSC22094 | inactive |
| CG42284 | DRSC22342 | inactive |
| Cul1 | DRSC07645 | inactive |
| CG42450 | DRSC20022 | inactive |
| CG42450 | DRSC22751 | inactive |
| CG15529 | DRSC15066 | inactive |
| Mgat4a | DRSC09326 | inactive |
| Mgat4a | DRSC11070 | inactive |
| Acyp2 | DRSC15336 | inactive |
| CSN8 | DRSC02257 | inactive |
| Fmr1 | DRSC16674 | inactive |
| Ns4 | DRSC03199 | inactive |
| ems | DRSC16941 | inactive |
| CG1503 | DRSC20512 | inactive |
| eRF1 | DRSC11779 | inactive |
| thr | DRSC07706 | inactive |
| Ugt37B1 | DRSC03225 | inactive |
| Jon65Aii | DRSC10665 | inactive |
| CG33340 | DRSC14615 | inactive |
| CG12194 | DRSC00345 | inactive |
| CG32631 | DRSC19768 | inactive |
| CG15578 | DRSC18066 | inactive |
| CG30082 | DRSC22945 | inactive |
| Kank | DRSC05513 | inactive |
| Kank | DRSC05933 | inactive |
| Dad1 | DRSC02263 | inactive |
| Dnaaf6 | DRSC10473 | inactive |
| CG16986 | DRSC08502 | inactive |
| CG12325 | DRSC06130 | inactive |
| Opbp | DRSC04966 | inactive |
| emb | DRSC03528 | inactive |
| Herc4 | DRSC08631 | inactive |
| CG31016 | DRSC21359 | inactive |
| Pect | DRSC02867 | inactive |
| Pect | DRSC02868 | inactive |
| CG15283 | DRSC01980 | inactive |
| inaC | DRSC07632 | inactive |
| ODA-Dnal1 | DRSC07270 | inactive |
| CG42538 | DRSC09412 | inactive |
| CG17564 | DRSC02626 | inactive |
| ind | DRSC11355 | inactive |
| Sem1 | DRSC02282 | inactive |
| PolE1 | DRSC16112 | inactive |
| mEFTu1 | DRSC06959 | inactive |
| CG17097 | DRSC02569 | inactive |
| CG6443 | DRSC02958 | inactive |
| NAAT1 | DRSC18300 | inactive |
| CG13171 | DRSC06299 | inactive |
| pnt | DRSC17028 | inactive |
| r | DRSC19813 | inactive |
| r | DRSC19814 | inactive |
| Act79B | DRSC11604 | inactive |
| CR11235 | DRSC20480 | inactive |
| ru | DRSC08258 | inactive |
| GXIVsPLA2 | DRSC10243 | inactive |
| Pc | DRSC11873 | inactive |
| Atac2 | DRSC02053 | inactive |

In a second layout: entries from further up.
predicted target	dsRNA	Call
Pect	DRSC02867	inactive
Pect	DRSC02868	inactive
CG15283	DRSC01980	inactive
inaC	DRSC07632	inactive
ODA-Dnal1	DRSC07270	inactive
CG42538	DRSC09412	inactive
CG17564	DRSC02626	inactive
ind	DRSC11355	inactive
Sem1	DRSC02282	inactive
PolE1	DRSC16112	inactive
mEFTu1	DRSC06959	inactive
CG17097	DRSC02569	inactive
CG6443	DRSC02958	inactive
NAAT1	DRSC18300	inactive
CG13171	DRSC06299	inactive
pnt	DRSC17028	inactive
r	DRSC19813	inactive
r	DRSC19814	inactive
Act79B	DRSC11604	inactive
CR11235	DRSC20480	inactive
ru	DRSC08258	inactive
GXIVsPLA2	DRSC10243	inactive
Pc	DRSC11873	inactive

The results go on:
| predicted target | dsRNA | Call |
| --- | --- | --- |
| sncRNA:430e + His2A:CG33859 + His2A:CG33817 + 37 more | DRSC21264 | inactive |
| ssh | DRSC16730 | inactive |
| Drep2 | DRSC07528 | inactive |
| rtp | DRSC12132 | inactive |
| shop | DRSC20030 | inactive |
| Afg3l2 | DRSC10657 | inactive |
| chp | DRSC16925 | inactive |
| CG8708 | DRSC07240 | inactive |
| qin | DRSC14782 | inactive |
| CG9395 | DRSC03218 | inactive |
| CG3436 | DRSC00605 | inactive |
| CG13982 | DRSC02314 | inactive |
| stck | DRSC17070 | inactive |
| CG2336 | DRSC12581 | inactive |
| CG10359 | DRSC08156 | inactive |
| CG3091 | DRSC18274 | inactive |
| Adgf-A | DRSC10566 | inactive |
| Dpit47 | DRSC04985 | inactive |
| CG14017 | DRSC02348 | inactive |
| CG15657 | DRSC04248 | inactive |
| DCTN6-p27 | DRSC02609 | inactive |
| DCTN6-p27 | DRSC22810 | inactive |
| COX6AL2 | DRSC10082 | inactive |
| Blimp-1 | DRSC10496 | inactive |
| Remo | DRSC19710 | inactive |
| lectin-24Db | DRSC00553 | inactive |
| Spn28Da | DRSC02162 | inactive |
| CG33552 | DRSC01551 | inactive |
| kek3 | DRSC03553 | inactive |
| kek3 | DRSC22830 | inactive |
| CG7065 | DRSC18420 | inactive |
| CG17618 (retired record) + CG45049 | DRSC16163 | inactive |
| CG17618 (retired record) + CG45049 | DRSC22054 | inactive |
| thw | DRSC12552 | inactive |
| Fancm | DRSC16348 | inactive |
| Rpn12 | DRSC11275 | inactive |
| CG5096 | DRSC02813 | inactive |
| RhoGEF2 | DRSC07531 | inactive |
| CG43078 | DRSC10292 | inactive |
| CG43078 | DRSC10608 | inactive |
| CG43078 | DRSC21541 | inactive |
| CG43078 | DRSC22327 | inactive |
| Ugt37C1 | DRSC07416 | inactive |
| CG17234 | DRSC00490 | inactive |
| CG15740 | DRSC19706 | inactive |
| Hsc70-1 | DRSC11185 | inactive |
| boca | DRSC06408 | inactive |
| CG10749 | DRSC09798 | inactive |
| atms | DRSC12310 | inactive |
| CG33203 | DRSC14874 | inactive |
| CG33203 | DRSC14876 | inactive |
| CG33203 | DRSC14877 | inactive |
| Nazo | DRSC14343 | inactive |
| CCHa1-R | DRSC06456 | inactive |
| CCHa1-R | DRSC06715 | inactive |
| bin | DRSC10332 | inactive |
| Rpn13R | DRSC18404 | inactive |
| Ir60a | DRSC04212 | inactive |
| CCT1 | DRSC16877 | inactive |
| CG13616 | DRSC14619 | inactive |
| dmrt93B | DRSC15865 | inactive |
| CG5282 | DRSC11775 | inactive |
| CG42323 | DRSC19629 | inactive |
| CG42323 | DRSC21397 | inactive |
| NPF | DRSC17019 | inactive |
| CG12768 | DRSC11680 | inactive |
| babos | DRSC03923 | inactive |
| babos | DRSC04397 | inactive |
| Send2 | DRSC01906 | inactive |
| CG9877 | DRSC04587 | inactive |
| Dci | DRSC08360 | inactive |
| Or94b | DRSC16773 | inactive |
| Trc8 | DRSC15437 | inactive |
| Larp4B | DRSC08192 | inactive |
| DIP-theta | DRSC00885 | inactive |
| DIP-theta | DRSC02340 | inactive |
| DIP-theta | DRSC02341 | inactive |
| Nepl13 | DRSC15632 | inactive |
| CG31689 | DRSC00734 | inactive |
| CG11413 + CG4622 | DRSC04109 | inactive |
| CheA87a | DRSC14839 | inactive |
| Lk6 | DRSC12867 | inactive |
| Lk6 | DRSC16728 | inactive |
| MED11 | DRSC10739 | inactive |
| Gga | DRSC18260 | inactive |
| Obp99a | DRSC15303 | inactive |
| CR46300 | DRSC12467 | inactive |
| Vha100-2 | DRSC14152 | inactive |
| Sec22 | DRSC18538 | inactive |
| CG14636 | DRSC12223 | inactive |
| Uqcc1 + CG9948 | DRSC09690 | inactive |
| vari | DRSC03202 | inactive |
| MsR2 + CG13802 (retired record) | DRSC08336 | inactive |
| MsR2 + CG13802 (retired record) | DRSC08337 | inactive |
| MsR2 + CG13802 (retired record) | DRSC22440 | inactive |
| CG15109 | DRSC06536 | inactive |
| CG14424 | DRSC18472 | inactive |
| PIG-T | DRSC17774 | active |
| Sf3b3 | DRSC08370 | inactive |
